According to patent US20260079169A1, “VOLATILE ORGANIC COMPOUNDS AS MARKERS FOR CELLULAR COMMUNICATION” (Technion Research and Development Foundation Limited, priority 2020, published 2026):

Key:
[1] = test system: A549, H1299, H1975 human lung cancer lines and BEAS-2B normal cell line, each cultured alone; test: VOCs headspace analysis (ITEX GC-MS) of mono-culture groups (Format-1), bulk cell samples 1×10^4 cells; format: cell-based; conditions: bulk 1 × 10^4 cell
[2] = test system: different-cell pairs of BEAS-2B, A549, H1299, H1975 without physical contact under a mutual headspace; test: VOCs headspace analysis (ITEX GC-MS) of different-cell pair co-culture headspace groups (Format-3), bulk cell samples; format: cell-based, human; conditions: bulk 1 × 10^4 cell

| SMILES | VOC level in headspace, area under curve (AUC) normalized by STD AUC ([1]; A (BEAS-2B) mono-culture) | VOC level in headspace, area under curve (AUC) normalized by STD AUC ([1]; B (A549) mono-culture) | VOC level in headspace, area under curve (AUC) normalized by STD AUC ([1]; C (H1299) mono-culture) | VOC level in headspace, area under curve (AUC) normalized by STD AUC ([1]; D (H1975) mono-culture) | VOC level in headspace, area under curve (AUC) normalized by STD AUC ([2]; A + B (BEAS-2B + A549)) | VOC level in headspace, area under curve (AUC) normalized by STD AUC ([2]; A + C (BEAS-2B + H1299)) | VOC level in headspace, area under curve (AUC) normalized by STD AUC ([2]; A + D (BEAS-2B + H1975)) | VOC level in headspace, area under curve (AUC) normalized by STD AUC ([2]; B + C (A549 + H1299)) | VOC level in headspace, area under curve (AUC) normalized by STD AUC ([2]; B + D (A549 + H1975)) | VOC level in headspace, area under curve (AUC) normalized by STD AUC ([2]; C + D (H1299 + H1975)) |
| --- | --- | --- | --- | --- | --- | --- | --- | --- | --- | --- |
| CCCOC(OCCC)OCCC [VOC44] | 0 | 4.068 | 0 | 0 | 3.9578 | 0 | 0 | 2.1894 | 3.767 | 0 |
| CC(=O)CC(C)CC(C)C (stereo not shown) [VOC75] | 5.927 | 0 | 6.8085 | 0 | 5.963 | 7.129 | 0 | 4.898 | 0 | 2.595 |
| CC(=O)CCC=C(C)C [VOC86] | 0 | 0 | 0 | 4.637 | 0 | 0 | 5.903 | 0 | 8.078 | 2.219 |
| c1ccccc1 [VOC54] | 0 | 2.326 | 2.326 | 1.377 | 4.067 | 1.812 | 2.275 | 0 | 0 | 6.241 |
| NC(=O)CF [VOC27] | 2.736 | 0 | 1.8542 | 0 | 0 | 0 | 0 | 0 | 0 | 0 |
| CC(C)CCOC(=O)C1CCC1 [VOC82] | 0 | 4.821 | 4.9531 | 0 | 2.077 | 4.821 | 0 | 9.846 | 0 | 2.457 |
| OC1CCCCC1 [VOC46] | 0 | 2.39 | 0 | 0 | 0 | 4.977 | 0 | 5.209 | 1.815 | 0 |
